Consider one substance from paper PMC11667810.

Protein sequences, listed by entry. Tags and fused reporters are not part of them.
UniProt Q61221: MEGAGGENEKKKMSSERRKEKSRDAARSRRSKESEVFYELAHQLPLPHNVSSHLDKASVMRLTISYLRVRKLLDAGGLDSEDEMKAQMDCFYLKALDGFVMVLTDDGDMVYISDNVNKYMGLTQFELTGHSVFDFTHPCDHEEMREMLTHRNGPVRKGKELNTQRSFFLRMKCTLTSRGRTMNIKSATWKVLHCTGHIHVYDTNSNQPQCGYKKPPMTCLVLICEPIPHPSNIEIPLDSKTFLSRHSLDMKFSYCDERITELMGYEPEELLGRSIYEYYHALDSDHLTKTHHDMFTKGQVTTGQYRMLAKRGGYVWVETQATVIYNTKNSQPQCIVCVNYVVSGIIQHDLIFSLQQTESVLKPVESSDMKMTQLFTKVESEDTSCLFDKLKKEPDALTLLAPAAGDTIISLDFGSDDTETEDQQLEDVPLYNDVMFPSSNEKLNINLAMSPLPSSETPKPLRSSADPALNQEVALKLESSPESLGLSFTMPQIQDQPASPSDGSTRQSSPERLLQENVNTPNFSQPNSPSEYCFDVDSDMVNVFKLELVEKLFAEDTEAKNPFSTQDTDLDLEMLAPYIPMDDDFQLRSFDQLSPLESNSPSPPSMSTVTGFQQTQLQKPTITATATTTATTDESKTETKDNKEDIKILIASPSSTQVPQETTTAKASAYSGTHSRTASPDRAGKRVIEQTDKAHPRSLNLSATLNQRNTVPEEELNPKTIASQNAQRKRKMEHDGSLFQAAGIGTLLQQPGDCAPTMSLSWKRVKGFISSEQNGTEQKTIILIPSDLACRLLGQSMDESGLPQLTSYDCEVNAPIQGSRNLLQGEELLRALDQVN
UniProt Q61696: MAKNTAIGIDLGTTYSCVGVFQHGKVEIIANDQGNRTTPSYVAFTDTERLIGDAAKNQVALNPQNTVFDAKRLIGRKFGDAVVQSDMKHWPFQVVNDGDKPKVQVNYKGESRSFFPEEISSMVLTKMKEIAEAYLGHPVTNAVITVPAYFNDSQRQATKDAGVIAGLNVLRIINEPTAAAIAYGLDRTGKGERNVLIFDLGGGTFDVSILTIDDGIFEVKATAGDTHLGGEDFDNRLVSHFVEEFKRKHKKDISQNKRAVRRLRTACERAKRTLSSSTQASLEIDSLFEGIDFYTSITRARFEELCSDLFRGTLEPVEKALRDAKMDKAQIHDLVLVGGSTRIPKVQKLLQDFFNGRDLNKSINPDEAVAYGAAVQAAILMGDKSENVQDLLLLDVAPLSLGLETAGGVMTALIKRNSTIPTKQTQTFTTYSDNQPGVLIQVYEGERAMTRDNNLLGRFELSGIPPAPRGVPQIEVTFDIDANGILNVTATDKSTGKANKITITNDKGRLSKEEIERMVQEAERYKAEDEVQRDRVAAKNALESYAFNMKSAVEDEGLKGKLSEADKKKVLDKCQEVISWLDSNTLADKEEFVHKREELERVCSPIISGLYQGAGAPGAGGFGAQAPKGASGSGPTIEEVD

Results are given in words; binding and its absence hold for the method and conditions named. Binding seen in cells or lysates may run through a third protein. Some results given as binding are weak or reduced against the parent protein; the word gives no strength.

This assay concerns the target Hypoxia-inducible factor 1-alpha (mouse (endogenous in bEnd.3)) (UniProt Q61221). As to the kind of experiment: co-IP; lysates of bEnd.3 and heat-acclimated bEnd.3HA cells (treated with si-NC, si-Hif-1α or si-Hspa1a); 2 μg anti-HIF-1α or anti-HSP70 antibody overnight at 4°C, homologous IgG as control, Protein A/G 3 h at 4°C; immunoblot with anti-HIF-1α and anti-HSP70.

For “Heat shock protein 70 (from UniProt Q61696 1-641)”, the binding entry is listed as “binds”.
